Measured values taken from the supplement of paper PMC12067093, “Discovery and optimisation of a covalent ligand for TRIM25 and its application to targeted protein ubiquitination” (Chemical Science, 2025).
This is one part of the list.

Protein sequences, listed by entry. Tags and fused reporters are not part of them. Lines headed by an entry give the natural chain unless they say otherwise; changes in a name come on top.
UniProt P05771, whole entry, looked up: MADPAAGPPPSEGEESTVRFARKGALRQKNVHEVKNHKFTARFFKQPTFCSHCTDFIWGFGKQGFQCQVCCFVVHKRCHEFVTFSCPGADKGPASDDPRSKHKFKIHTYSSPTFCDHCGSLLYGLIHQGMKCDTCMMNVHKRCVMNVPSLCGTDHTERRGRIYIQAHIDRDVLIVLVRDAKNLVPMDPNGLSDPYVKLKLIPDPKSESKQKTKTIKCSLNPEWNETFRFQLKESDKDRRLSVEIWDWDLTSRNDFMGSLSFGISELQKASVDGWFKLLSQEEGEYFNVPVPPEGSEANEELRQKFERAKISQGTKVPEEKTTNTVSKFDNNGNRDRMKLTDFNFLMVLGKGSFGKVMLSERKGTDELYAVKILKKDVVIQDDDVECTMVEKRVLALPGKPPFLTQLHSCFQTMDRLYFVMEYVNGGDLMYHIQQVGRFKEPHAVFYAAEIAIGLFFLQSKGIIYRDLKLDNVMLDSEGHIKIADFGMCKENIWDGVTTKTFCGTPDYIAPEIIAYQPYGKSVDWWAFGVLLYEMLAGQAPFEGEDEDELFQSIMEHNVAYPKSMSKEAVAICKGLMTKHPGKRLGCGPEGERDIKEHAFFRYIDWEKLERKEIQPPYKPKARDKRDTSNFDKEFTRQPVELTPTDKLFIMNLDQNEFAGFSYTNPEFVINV
UniProt Q9NVM4: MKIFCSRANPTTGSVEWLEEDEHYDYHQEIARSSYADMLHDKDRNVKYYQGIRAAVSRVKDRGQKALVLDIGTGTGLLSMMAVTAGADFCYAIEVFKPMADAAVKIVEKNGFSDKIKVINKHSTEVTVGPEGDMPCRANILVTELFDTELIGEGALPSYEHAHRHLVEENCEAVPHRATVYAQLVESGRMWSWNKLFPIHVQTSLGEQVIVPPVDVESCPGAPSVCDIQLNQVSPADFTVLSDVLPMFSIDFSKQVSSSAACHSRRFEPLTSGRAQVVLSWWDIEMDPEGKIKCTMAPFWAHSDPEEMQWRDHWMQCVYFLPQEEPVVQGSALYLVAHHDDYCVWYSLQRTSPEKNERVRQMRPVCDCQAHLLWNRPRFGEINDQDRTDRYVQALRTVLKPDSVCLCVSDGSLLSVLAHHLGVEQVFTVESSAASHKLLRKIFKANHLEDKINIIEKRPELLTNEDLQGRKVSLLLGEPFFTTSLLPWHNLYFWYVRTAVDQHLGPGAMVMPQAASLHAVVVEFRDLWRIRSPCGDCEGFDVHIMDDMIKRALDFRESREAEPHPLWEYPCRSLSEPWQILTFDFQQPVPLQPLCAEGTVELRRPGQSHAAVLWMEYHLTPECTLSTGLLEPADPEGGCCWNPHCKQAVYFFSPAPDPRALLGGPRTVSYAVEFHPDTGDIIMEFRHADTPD
UniProt Q96LA8, whole entry, looked up: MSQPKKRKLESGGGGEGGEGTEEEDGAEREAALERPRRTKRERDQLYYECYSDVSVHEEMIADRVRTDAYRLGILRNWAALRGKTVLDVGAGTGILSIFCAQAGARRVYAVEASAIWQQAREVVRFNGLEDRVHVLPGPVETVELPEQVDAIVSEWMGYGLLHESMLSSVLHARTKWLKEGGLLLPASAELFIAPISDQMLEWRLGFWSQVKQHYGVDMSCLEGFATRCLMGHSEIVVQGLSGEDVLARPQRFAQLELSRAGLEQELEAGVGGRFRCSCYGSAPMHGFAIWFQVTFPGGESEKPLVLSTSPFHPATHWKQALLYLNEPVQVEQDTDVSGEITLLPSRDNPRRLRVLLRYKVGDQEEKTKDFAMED
UniProt O14744, whole entry, looked up: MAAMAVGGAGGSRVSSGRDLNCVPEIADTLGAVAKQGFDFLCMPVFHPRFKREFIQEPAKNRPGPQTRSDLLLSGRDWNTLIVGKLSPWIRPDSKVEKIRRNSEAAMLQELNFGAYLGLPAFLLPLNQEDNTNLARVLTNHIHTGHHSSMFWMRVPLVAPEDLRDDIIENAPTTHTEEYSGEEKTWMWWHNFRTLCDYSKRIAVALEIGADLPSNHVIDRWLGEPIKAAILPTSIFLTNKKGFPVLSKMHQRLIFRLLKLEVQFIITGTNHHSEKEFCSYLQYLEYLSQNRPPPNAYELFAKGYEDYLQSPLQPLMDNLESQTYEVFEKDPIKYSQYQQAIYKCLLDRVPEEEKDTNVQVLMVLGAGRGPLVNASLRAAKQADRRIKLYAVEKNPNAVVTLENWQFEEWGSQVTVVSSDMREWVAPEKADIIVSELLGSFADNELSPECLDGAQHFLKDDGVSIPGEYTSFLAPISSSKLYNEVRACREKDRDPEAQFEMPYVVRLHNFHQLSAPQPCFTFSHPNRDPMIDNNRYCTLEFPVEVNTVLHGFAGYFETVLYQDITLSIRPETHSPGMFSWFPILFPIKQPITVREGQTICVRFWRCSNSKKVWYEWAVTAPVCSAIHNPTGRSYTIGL
UniProt Q5VTL8: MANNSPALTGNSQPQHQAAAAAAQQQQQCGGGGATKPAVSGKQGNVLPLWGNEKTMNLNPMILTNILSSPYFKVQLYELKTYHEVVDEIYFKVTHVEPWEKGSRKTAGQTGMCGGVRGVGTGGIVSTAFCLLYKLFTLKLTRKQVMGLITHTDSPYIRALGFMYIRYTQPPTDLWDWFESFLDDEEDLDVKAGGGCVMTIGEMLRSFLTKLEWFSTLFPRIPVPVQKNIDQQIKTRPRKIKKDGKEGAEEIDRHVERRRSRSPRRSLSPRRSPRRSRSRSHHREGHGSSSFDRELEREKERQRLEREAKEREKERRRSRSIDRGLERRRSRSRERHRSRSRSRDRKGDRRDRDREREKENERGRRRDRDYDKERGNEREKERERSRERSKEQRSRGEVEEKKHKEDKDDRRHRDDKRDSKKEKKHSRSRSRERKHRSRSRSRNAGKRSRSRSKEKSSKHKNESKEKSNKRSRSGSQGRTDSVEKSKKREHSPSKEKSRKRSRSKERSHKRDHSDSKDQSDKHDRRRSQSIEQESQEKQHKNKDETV
UniProt P41743, whole entry, looked up: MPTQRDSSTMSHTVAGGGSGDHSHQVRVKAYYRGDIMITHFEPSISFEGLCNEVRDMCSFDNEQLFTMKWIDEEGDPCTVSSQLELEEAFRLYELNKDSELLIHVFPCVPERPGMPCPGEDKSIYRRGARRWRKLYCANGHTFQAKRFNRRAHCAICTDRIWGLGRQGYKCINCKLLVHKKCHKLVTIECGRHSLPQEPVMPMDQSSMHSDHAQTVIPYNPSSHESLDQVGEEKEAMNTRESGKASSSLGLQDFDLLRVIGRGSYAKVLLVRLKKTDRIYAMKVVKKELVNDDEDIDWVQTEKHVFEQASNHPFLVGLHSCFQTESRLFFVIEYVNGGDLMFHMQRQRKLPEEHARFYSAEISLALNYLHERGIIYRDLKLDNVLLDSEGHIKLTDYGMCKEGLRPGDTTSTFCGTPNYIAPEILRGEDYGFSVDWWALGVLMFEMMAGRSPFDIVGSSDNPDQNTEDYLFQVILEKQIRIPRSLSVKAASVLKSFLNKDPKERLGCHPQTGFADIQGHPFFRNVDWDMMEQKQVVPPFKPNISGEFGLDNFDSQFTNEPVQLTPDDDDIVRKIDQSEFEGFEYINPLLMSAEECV
UniProt Q86TP1: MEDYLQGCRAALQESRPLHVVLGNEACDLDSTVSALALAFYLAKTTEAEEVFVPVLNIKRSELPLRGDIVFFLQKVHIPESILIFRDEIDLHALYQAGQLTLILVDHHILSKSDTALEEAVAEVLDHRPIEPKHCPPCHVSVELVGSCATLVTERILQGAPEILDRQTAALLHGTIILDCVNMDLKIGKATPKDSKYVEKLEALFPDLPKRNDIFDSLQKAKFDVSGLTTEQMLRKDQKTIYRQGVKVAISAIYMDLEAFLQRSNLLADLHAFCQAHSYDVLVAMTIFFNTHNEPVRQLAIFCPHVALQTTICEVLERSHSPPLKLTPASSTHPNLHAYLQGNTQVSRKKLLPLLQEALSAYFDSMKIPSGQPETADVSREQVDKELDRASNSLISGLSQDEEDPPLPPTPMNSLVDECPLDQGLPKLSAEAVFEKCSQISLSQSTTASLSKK

Compound: CC1Cc2ccccc2N1C(=O)C1CCCN(C1)C(=O)CCl (mixture of isomers) [TRIM25 ligand 11 (diastereomer mixture)]
Test: probe-labelled cysteine peptide fold change vs DMSO (competition) (log2 fold change); higher = less target engagement (more negative = stronger competition)
Settings: THP-1, incubation time: 4 h
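Note: competitive chemoproteomic profiling in live THP-1 cells with an iodoacetamide desthiobiotin (IA-DTB) probe, comparing probe-labelled peptide intensities in compound-treated cells against DMSO-treated controls.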

Target	probe-labelled cysteine peptide fold change (10 µM)	probe-labelled cysteine peptide fold change (50 µM)
PRKDC_P78527_457_MQLVCCR (UniProt P78527)	-0.115	0.268
PRKDC_P78527_3293_SQGCSEQVLTVLK (UniProt P78527)	0.0201	0.00989
PRKCB_P05771_67_QGFQCQVCCFVVHK (UniProt P05771)	0.153	0.0649
PRKDC_P78527_3001_DFWELASLDCYNHLAEWK (UniProt P78527)	0.0402	0.0411
PRKDC_P78527_2342_NILEESLCELVAK (UniProt P78527)	0.125	0.107
PRMT7_Q9NVM4_571_EAEPHPLWEYPCR (UniProt Q9NVM4)	-0.116	-0.0711
PRMT6_Q96LA8_100_TVLDVGAGTGILSIFCAQAGAR (UniProt Q96LA8)	-0.0299	0.19
PRKCA_P17252_132+135_CDTCDMNVHK (UniProt P17252)	-0.0888	-0.162
PRMT5_O14744_518_LHNFHQLSAPQPCFTFSHPNRDPMIDNNR (UniProt O14744)	0.0044	-0.0979
PRPF38B_Q5VTL8_113_TAGQTGMCGGVR (UniProt Q5VTL8)	0.02	-0.217
PRKDC_P78527_1335_CTVVVR (UniProt P78527)	0.148	0.208
PRKCI_P41743_507_LGCHPQTGFADIQGHPFFR (UniProt P41743)	-0.0123	0.0437
PRKDC_P78527_2093_DPTVHDDVLELEMDELNRHECMAPLTALVK (UniProt P78527)	-0.0591	-0.179
PRUNE1_Q86TP1_313_QLAIFCPHVALQTTICEVLER (UniProt Q86TP1)	-0.101	-0.225
